These are yes or no findings as the source states them, for the method shown. In cells and extracts the contact can be indirect. A yes stands for co-enrichment or nearness to the bait. Other partners may have been found. For part of these data: Tags and fused reporters may be left off the sequences shown.
T1: Dcp1-myc (S. cerevisiae) (UniProt Q12517)
T1 sequence: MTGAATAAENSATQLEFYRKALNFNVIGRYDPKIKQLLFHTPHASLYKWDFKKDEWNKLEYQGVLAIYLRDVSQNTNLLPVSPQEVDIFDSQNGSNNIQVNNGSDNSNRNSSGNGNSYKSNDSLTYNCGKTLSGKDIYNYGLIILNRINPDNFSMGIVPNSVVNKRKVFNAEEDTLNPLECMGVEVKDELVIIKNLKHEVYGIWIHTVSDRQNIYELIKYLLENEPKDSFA

Protein sequences, listed by entry. Tags and fused reporters are not part of them.
UniProt P53297: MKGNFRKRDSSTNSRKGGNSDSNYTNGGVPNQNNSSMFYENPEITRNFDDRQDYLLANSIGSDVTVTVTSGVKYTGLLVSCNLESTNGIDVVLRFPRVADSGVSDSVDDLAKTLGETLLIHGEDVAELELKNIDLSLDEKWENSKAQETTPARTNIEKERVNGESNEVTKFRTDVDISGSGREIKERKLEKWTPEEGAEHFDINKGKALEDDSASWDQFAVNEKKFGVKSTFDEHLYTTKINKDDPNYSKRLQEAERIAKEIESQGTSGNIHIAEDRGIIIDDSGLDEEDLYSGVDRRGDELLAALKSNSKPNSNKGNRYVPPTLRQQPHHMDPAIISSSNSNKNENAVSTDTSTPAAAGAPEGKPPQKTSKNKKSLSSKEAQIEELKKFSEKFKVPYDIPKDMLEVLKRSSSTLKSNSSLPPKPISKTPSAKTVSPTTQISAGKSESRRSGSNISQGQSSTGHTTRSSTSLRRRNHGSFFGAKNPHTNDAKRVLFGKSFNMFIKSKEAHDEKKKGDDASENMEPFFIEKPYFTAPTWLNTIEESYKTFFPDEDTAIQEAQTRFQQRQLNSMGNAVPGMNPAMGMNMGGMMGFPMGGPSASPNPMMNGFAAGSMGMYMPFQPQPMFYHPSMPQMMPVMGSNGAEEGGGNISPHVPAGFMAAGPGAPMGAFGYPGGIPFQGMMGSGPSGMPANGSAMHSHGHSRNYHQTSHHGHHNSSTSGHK

B1: Cic1 (protein, UniProt P38779 1-376)
chain: MAKKSNSKKSTPVSTPSKEKKKVIEKKSSTAIPRERVIKAVNELIKFTSKPQDENNEEGNNGKKNLLEDDEEELKKDLQLIVVNNKSFTGTSKSFKLKLLNVKHSFYKPWKEASATAVKDFKVLLILKDSDIKKVSEDDLFDQLDSEGIKVDEIICGKDLKTVYKAYEARNAFISQFSLILADDSIVTSLPKLMGGKAYNKVETTPISIRTHANKEFSLTTLTNNIKKVYMNQLPVKLPRGTTLNVHLGNLEWLRPEEFVDNVELISEQLIKAYQIRSIFIKTNRSPVLPLYYNQDVLDELEAKKDKIEETHEDDMVTIDGVQVHLSTFNKGLMEIANPSELGSIFSKQINNAKKRSSSELEKESSESEAVKKAKS
B2: Clu1 (protein, UniProt Q03690 1-1277)
chain: MSEKKEEVKNATVKVTVKLPKEDNHSHNTKHLKKTQSSKNNDISFEIGKESKIQTVLDVLAMIPSSKYLTNVGLKTIEGDSQLSDEMSIKEIVGEKSELKLQLILKPYSAREALKHVITVRDFIGFAQETSDGLSEFAISTGSSFSSLPLGPIKERSKQEEKDEKSDPEEKKNTFKDVTDEEKLKFNEMVHEVFSSFKNSSINKLLTSESNIITPCVRSLSFAPYNPVPPFYRSKGHLFYLQIVTLEGESFYITAIPSGFYVNKSNSTKFDPSPKENTDENAHSSLIYYSLFDLIASRSKKFISHVQAFEKKLSALDSTSYVRPSNTFLHKPWFVSSLPPNNPDYLRLQTAALDTTPERNFNDEFQAIKDLTTSTLQDRIEMERLFSKVVHEFSVTAASGAMSIFYSDFVAMNPESPTRDQIFLKDNIFYSYVSDVSGNYEGKGGDEAAIAASNQDLKTINILNRLHMHEVRYLLTTVVEFAGRRILAQTPVPGLLATMGNKIVKDANTGEEVTEDFVNDINVKYGLDEGLGKIVYDADFDSVLEKKFVKAFHLKKHKVNGTELAFSSQSKGIVGFDKRRYILDLANTYPLDINFARQNFDNIEETGNRYPHRQTLLRPELVEKWWNNKVEKEGVEFEKAYEENLFSYNPDAYQVEGIEDANVDEMSNYLQKEVIPSVIQDYLSGNLSTPYNGEHLADTLHKNGINMRYLGKIIELSQKELDSQIVHYEQNLKAVEQDNKEYEDWEKSYLQKIENMIKERQAKINKLVQEGKEVPKELTEDLKLNDEEIKKPTDGKPVVVAYDELVPLIKISELEIVSRSLKHVLKDLSKDVPVFLVPSLVAYVFNMLVGINYNADPKPEPVDEFYPVNKCSFAKLTRSELLEAVSKQAFLRFRHQLPSNWIEAYMENPFTLIRSVSYKFGIQLLNKEYFFTREQLESYKQSLDKKIRNKFVEPPTTFSLSDLTIIPRVKFSEYTSSVSEEFWAQGASMINEDKQSALTLLAQSITVLEDVNNILHPAVAEKYLSLSAIYNKLALYPEAIAFCRKACTIYERVSGIDSFEMMRALTNLAILEFSNESPYNATVVYNRLAEILKVYELPKIHHPAPTSIFNHLEQLALGVQDTKLAIEVLGQLSSYVVELEGKDSLAYGYTESRLGNLFAALKDFHRALEHITVTQGIFTKQLGMNHTHSAQSRQWVNGLSSLIMDLKQKKQLAQDQMSTTGSNSAGHKKTNHRQKKDDVKPELANKSVDELLTFIEGDSSNSKSKNKTNNKKKHGKK
B3: Hek2 (protein, UniProt P38199 1-381)
chain: MSQFFEAATPVAIPTNNTNGGSSDAGSAATGGAPVVGTTAQPTINHRLLLSLKEAAKIIGTKGSTISRIRAANAVKIGISEKVPGCSDRILSCAGNVINVANAIGDIVDVLNKRNPENEDAAEGEAEEHYYFHFLNHILPAPSKDEIRDLQQLEDIGYVRLIVANSHISSIIGKAGATIKSLINKHGVKIVASKDFLPASDERIIEIQGFPGSITNVLIEISEIILSDVDVRFSTERSYFPHLKKSSGEPTSPSTSSNTRIELKIPELYVGAIIGRGMNRIKNLKTFTKTNIVVERKDDDDKDENFRKFIITSKFPKNVKLAESMLLKNLNTEIEKRENYKRKLEAAEGDATVVTERSDSASFLEEKEEPQENHDNKEEQS
B4: Lcp5 (protein, UniProt P40079 1-357)
chain: MSELNALLKDINGSLTATSESLERLSGIYSNSATDEIPESNQLHEHLFYDAKKPAEKVSLLSLKNGSMLGYINSLLMLIGNRLDDECKDPSAMDARERSIQHRVVLERGVKPLEKKLAYQLDKLTRAYVKMEKEYKDAEKRALEKSTLVNHSGNDDSEDDESSEDEIAYRPNTSGIINTNKKSSAYRVEETAKQENGEENDDNETGVYKPPKITAVLPPQQTHFEDRFDAREHKDRSNKSRMQAMEEYIRESSDQPDWSASIGADIVNHGRGGIKSLRDTEKERRVTSFEEDNFTRLNITNKAEKRKQKQRERNARMNVIGGEDFGIFSSKRKLEDSTSRRGAKKTRSAWDRAQRRL
B5: Meu1 (protein, UniProt Q07938 1-337)
chain: MNRIKNTFSVAKRLKLSKVMTNSELPSIFEGTVDLGIIGGTGLYNLDCLEPIALLPPMVTPWGTTSSPVTISQFVGTNSHFHVAFIARHGINHEYPPTKVPFRANMAALKNLNCKAVLSFSAVGSLQPHIKPRDFVLPQQIIDRTKGIRHSSYFNDEGLVGHVGFGQPFSQKFAEYIYQFKNEITNPESEEPCHLHYDKDMTVVCMEGPQFSTRAESKMYRMFGGHVINMSVIPEAKLARECELPYQMICMSTDYDAWRDEAEPVTVETVIGNLTNNGRNANILASKIIVSMAKEIPEFMHTGDGLRGSIKKSISTKPEAMSKETLERLRYLFPNYW
B6: Def1 (protein, UniProt P35732 1-738)
chain: MSTQFRKSNHNSHSSKKLNPALKSKIDTLTELFPDWTSDDLIDIVQEYDDLETIIDKITSGAVTRWDEVKKPAKKEKYEKKEQQHSYVPQQHLPNPEDDITYKSSNNSNSFTSTKHNSSNNYTQARNKKKVQTPRAHTTGKHVNLDKGKHVPSKPVSNTTSWAAAVSVDTKHDVPQDSNDNNNEELEAQGQQAQEKNQEKEQEEQQQQEGHNNKEEHKQIEQPSLSSKKTTSRTSASQPKKMSWAAIATPKPKAVKKTESPLENVAELKKEISDIKKDDQKSEASEEKVNEQETSAQEQEEETAEPSEENEDRVPEVDGEEVQEEAEKKEQVKEEEQTAEELEQEQDNVAAPEEEVTVVEEKVEISAVISEPPEDQANTVPQPQQQSQQPQQPQQPQQPQQPQQPQQQQQPQQPQQPQQQLQQQQQQQQQPVQAQAQAQEEQLSQNYYTQQQQQQYAQQQHQLQQQYLSQQQQYAQQQQQHPQPQSQQPQSQQSPQSQKQGNNVAAQQYYMYQNQFPGYSYPGMFDSQGYAYGQQYQQLAQNNAQTSGNANQYNFQQGYGQAGANTAAANLTSAAAAAAASPATAHAQPQQQQPYGGSFMPYYAHFYQQSFPYGQPQYGVAGQYPYQLPKNNYNYYQTQNGQEQQSPNQGVAQHSEDSQQKQSQQQQQQQPQGQPQPEVQMQNGQPVNPQQQMQFQQYYQFQQQQQQAAAAAAAAAQQGVPYGYNGYDYNSKNSRGFY
B7: Nrp1 (protein, UniProt P32770 1-719)
chain: MHYVVLELQVAHLPDTPKDQCRIANIAFQIVNAETLVCHYGTNSLPSIEVNGTTKSLESAMVQLDKDIHDVIGNDDFVLVSLYSTWHIRVTLPRQARDDGFILTSYLQHPKVFDLWKEFDRWCVNHPEILGQKKAISNNNCNTKSISINAAKNTKDLDEIVRILEVSIPTEEAGSVPEIYSLLKRTTDILIQLHKKCTSPEDMESVLTKPYDSHTDIRAFLQEKSKILYMNNLPPDTTQSELESWFTQYGVRPVGFWTVKNIVEDTSNVNNNWSLNNSPYVEDQDSISGFVVFQTHEEATEVLALNGRSILSNLANTKQPRVVEHVLELQPSSTGVLDKAQEILSPFPQSKNKPRPGDWNCPSCGFSNFQRRTACFRCSFPAPSNSQIHTANSNNNVNSSRNNLNNRVNSGSSSNISNTAANHPYGAPEFNMIANNTPAALTYNRAHFPAITPLSRQNSLNMAPSNSGSPIIIADHFSGNNNIAPNYRYNNNINNNNNNINNMTNNRYNINNNINGNGNGNGNNSNNNNNHNNNHNNNHHNGSINSNSNTNNNNNNNNGNNSNNCNSNIGMGGCGSNMPFRAGDWKCSTCTYHNFAKNVVCLRCGGPKSISGDASETNHYIDSSTFGPASRTPSNNNISVNTNGGSNAGRTDGNDNKGRDISLMEFMSPPLSMATKSMKEGDGNGSSFNEFKSDKANVNFSNVGDNSAFGNGFNSSIRW
B8: Pop2 (protein, UniProt P39008 1-433)
chain: MQSMNVQPRVLAVGGEQFFSQRQASEQHQQQNMGPQVYSPKVNRARMFPQGMPVNTINGSVNQEMNNAYLLKQKNEPLLTQQQQQQQQQQQPFNIGTPVSVASLPPGLNVLQQQQQQQQQQQQQQQGVGLNRPLASQLPKHLTNQSMPPIFLPPPNYLFVRDVWKSNLYSEFAVIRQLVSQYNHVSISTEFVGTLARPIGTFRSKVDYHYQTMRANVDFLNPIQLGLSLSDANGNKPDNGPSTWQFNFEFDPKKEIMSTESLELLRKSGINFEKHENLGIDVFEFSQLLMDSGLMMDDSVTWITYHAAYDLGFLINILMNDSMPNNKEDFEWWVHQYMPNFYDLNLVYKIIQEFKNPQLQQSSQQQQQQQYSLTTLADELGLPRFSIFTTTGGQSLLMLLSFCQLSKLSMHKFPNGTDFAKYQGVIYGIDGDQ
B9: Rnq1 (protein, UniProt P25367 1-405)
chain: MDTDKLISEAESHFSQGNHAEAVAKLTSAAQSNPNDEQMSTIESLIQKIAGYVMDNRSGGSDASQDRAAGGGSSFMNTLMADSKGSSQTQLGKLALLATVMTHSSNKGSSNRGFDVGTVMSMLSGSGGGSQSMGASGLAALASQFFKSGNNSQGQGQGQGQGQGQGQGQGQGSFTALASLASSFMNSNNNNQQGQNQSSGGSSFGALASMASSFMHSNNNQNSNNSQQGYNQSYQNGNQNSQGYNNQQYQGGNGGYQQQQGQSGGAFSSLASMAQSYLGGGQTQSNQQQYNQQGQNNQQQYQQQGQNYQHQQQGQQQQQGHSSSFSALASMASSYLGNNSNSNSSYGGQQQANEYGRPQQNGQQQSNEYGRPQYGGNQNSNGQHESFNFSGNFSQQNNNGNQNRY

How the values were obtained:
Dcp1-myc (S. cerevisiae) = molecular target: T1, Dcp1-myc (S. cerevisiae); experiment: affinity purification with mass spectrometry; cells unstressed or glucose-depleted (10 min for Dcp1-myc, 60 min for Pbp1-myc), cross-linked with 0.8% formaldehyde; 20,000 g pellet of the lysate in Blob100 buffer (20 mM Tris-HCl pH 8, 100 mM NaCl, 1 mM MgCl2, 0.5% NP40) on anti-c-Myc magnetic beads, eluted with Myc peptide; label-free LC-MS/MS; hits are the proteins that cluster (Mfuzz) with the tagged bait across IP, pellet, supernatant, total and unbound fractions
Pbp1-myc (S. cerevisiae) = Pbp1-myc (S. cerevisiae) (UniProt P53297); experiment: as above

Binder	binding (Dcp1-myc (S. cerevisiae))	binding (Pbp1-myc (S. cerevisiae))
B1	binds	binds
B2	binds	binds
B3	binds	binds
B4	binds	binds
B5	binds	binds
B6	binds	binds
B7	binds	binds
B8	binds	binds
B9	binds	binds

— publication PMC8782181
